Laboratory results as given in PMC5291280.
No constants are given. Whether binding was seen depends on the method and setting. In cells and extracts the contact can be indirect. A yes stands for co-enrichment or nearness to the bait. Other partners may have been found. Where a sequence is shown, tags or fusion partners need not be part of it.

The chains behind the UniProt entries cited, without tags or fusion partners.
UniProt O60573: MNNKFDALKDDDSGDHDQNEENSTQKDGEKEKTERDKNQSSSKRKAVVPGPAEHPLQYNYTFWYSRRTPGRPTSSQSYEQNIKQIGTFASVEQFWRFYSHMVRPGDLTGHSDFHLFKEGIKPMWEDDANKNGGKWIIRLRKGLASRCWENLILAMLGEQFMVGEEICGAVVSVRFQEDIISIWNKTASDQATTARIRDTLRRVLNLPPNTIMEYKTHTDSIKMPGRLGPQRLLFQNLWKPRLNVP
UniProt P06730: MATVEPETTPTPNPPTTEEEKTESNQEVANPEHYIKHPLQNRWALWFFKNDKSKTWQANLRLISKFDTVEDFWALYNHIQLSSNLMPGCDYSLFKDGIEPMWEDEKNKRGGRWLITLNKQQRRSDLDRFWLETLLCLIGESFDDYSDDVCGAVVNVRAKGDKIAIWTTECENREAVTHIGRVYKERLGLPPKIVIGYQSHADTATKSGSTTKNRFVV
UniProt Q8ND56: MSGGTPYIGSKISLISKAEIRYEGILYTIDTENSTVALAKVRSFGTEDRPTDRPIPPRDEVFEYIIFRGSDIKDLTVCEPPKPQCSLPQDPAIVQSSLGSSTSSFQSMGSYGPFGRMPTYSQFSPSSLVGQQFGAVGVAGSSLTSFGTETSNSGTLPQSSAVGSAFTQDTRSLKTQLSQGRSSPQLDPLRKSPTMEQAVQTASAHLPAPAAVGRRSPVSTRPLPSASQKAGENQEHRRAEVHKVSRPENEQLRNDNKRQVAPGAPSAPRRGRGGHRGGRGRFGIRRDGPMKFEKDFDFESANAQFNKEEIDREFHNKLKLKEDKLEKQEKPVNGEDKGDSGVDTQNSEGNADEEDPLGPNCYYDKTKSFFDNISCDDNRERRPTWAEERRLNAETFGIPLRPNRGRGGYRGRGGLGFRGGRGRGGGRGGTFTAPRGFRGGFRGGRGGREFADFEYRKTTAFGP
UniProt Q96F86: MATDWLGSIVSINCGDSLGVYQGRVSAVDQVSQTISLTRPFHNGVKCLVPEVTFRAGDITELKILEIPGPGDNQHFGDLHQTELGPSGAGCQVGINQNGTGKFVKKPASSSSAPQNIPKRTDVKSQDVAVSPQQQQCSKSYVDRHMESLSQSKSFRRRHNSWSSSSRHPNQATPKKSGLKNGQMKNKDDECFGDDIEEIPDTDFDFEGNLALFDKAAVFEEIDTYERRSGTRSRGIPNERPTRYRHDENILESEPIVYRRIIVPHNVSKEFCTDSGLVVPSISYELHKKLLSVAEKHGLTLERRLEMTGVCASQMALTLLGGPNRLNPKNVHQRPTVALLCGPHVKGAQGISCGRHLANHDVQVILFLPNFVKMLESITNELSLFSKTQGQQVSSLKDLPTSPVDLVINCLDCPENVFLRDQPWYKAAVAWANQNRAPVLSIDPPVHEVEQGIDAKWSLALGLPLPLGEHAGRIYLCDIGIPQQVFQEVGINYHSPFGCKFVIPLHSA

T1: FLAG-4E-T (4E-Transporter, full length) (human) (UniProt Q9NRA8)
T1 sequence: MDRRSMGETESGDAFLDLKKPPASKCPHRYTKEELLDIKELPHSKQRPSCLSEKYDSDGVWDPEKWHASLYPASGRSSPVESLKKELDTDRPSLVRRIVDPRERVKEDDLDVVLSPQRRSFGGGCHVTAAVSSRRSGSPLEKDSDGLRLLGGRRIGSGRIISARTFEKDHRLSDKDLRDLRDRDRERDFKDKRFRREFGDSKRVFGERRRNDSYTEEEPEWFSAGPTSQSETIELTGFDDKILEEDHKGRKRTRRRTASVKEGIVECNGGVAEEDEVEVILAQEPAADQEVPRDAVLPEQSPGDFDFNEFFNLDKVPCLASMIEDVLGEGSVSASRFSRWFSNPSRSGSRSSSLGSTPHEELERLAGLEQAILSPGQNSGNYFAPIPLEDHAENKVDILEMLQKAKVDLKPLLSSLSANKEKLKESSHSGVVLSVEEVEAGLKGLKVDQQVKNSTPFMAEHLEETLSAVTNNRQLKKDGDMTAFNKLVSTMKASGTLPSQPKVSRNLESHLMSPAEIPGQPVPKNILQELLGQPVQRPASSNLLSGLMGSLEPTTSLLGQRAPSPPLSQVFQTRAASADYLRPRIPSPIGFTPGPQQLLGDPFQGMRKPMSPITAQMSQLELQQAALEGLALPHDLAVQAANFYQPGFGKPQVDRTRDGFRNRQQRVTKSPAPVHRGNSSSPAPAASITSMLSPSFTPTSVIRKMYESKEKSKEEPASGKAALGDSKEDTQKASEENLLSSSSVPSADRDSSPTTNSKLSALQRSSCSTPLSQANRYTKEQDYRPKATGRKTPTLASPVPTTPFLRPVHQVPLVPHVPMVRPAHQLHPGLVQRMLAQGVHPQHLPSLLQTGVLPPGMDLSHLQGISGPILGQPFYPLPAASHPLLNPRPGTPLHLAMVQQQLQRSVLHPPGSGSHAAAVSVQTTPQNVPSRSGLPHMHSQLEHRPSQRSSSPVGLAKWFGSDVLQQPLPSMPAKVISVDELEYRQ

B1: PAT1B, endogenous (protein, UniProt Q86TB9 1-770)
chain: MFRYESLEDCPLDEDEDAFQGLGEEDEEIDQFNDDTFGSGAVDDDWQEAHERLAELEEKLPVAVNEQTGNGERDEMDLLGDHEENLAERLSKMVIENELEDPAIMRAVQTRPVLQPQPGSLNSSIWDGSEVLRRIRGPLLAQEMPTVSVLEYALPQRPPQGPEDDRDLSERALPRRSTSPIIGSPPVRAVPIGTPPKQMAVPSFTQQILCPKPVHVRPPMPPRYPAPYGERMSPNQLCSVPNSSLLGHPFPPSVPPVLSPLQRAQLLGGAQLQPGRMSPSQFARVPGFVGSPLAAMNPKLLQGRVGQMLPPAPGFRAFFSAPPSATPPPQQHPPGPGPHLQNLRSQAPMFRPDTTHLHPQHRRLLHQRQQQNRSQHRNLNGAGDRGSHRSSHQDHLRKDPYANLMLQREKDWVSKIQMMQLQSTDPYLDDFYYQNYFEKLEKLSAAEEIQGDGPKKERTKLITPQVAKLEHAYKPVQFEGSLGKLTVSSVNNPRKMIDAVVTSRSEDDETKEKQVRDKRRKTLVIIEKTYSLLLDVEDYERRYLLSLEEERPALMDDRKHKICSMYDNLRGKLPGQERPSDDHFVQIMCIRKGKRMVARILPFLSTEQAADILMTTARNLPFLIKKDAQDEVLPCLLSPFSLLLYHLPSVSITSLLRQLMNLPQSAATPALSNPHLTAVLQNKFGLSLLLILLSRGEDLQSSDPATESTQNNQWTEVMFMATRELLRIPQAALAKPISIPTNLVSLFSRYVDRQKLNLLETKLQLVQGIR

These molecules were tested against T1, FLAG-4E-T (4E-Transporter, full length) (human) (assay: affinity purification with mass spectrometry; FLAG-4E-T or empty vector in HEK293T; anti-M2 affinity gel, eluted with FLAG peptide, SDS-PAGE slices, GELC/MS/MS; two independent experiments).

| binding | Molecule |
| --- | --- |
| binds | eIF4E2, endogenous (from UniProt O60573 1-245) |
| binds | eIF4E1, endogenous (from UniProt P06730 1-217) |
| binds | LSM14A, endogenous (from UniProt Q8ND56 1-463) |
| binds weakly | EDC3, endogenous (from UniProt Q96F86 1-508) |
| binds | B1 |
